The source of these data is patent US20220125891A1.

Results are given in words; binding and its absence hold for the method and conditions named. Some results given as binding are weak or reduced against the parent protein; the word gives no strength. Tags and fused reporters may be left off the sequences shown.

This assay concerns the target C-terminal segment (441 to 598) of mouse Regnase-1, released from GST (mouse) (UniProt Q5D1E7). Put plainly: gel filtration, self-association.

B1: C-terminal segment (441 to 598) of mouse Regnase-1, released from GST (protein)
chain: ESQMSELWGVRGGSPGESGPTRGPYAGYHSYGSKVPAAPSFSPFRPAMGAGHFSVPTDYVPPPPTYPSREYWSEPYPLPPPTPVLQEPQRPSPGAGGGPWGRVGDLAKERAGVYTKLCGVFPPHLVEAVMRRFPQLLDPQQLAAEILSYKSQHLSE
With B1, the binding entry is reported as “binds”.
